PubChem BioAssay AID1508597 – Cure First – 2020
Assay: 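Survival screen with siRNA in ovarian cancer cells derived from patients, with or without rucaparib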 (primary screen). Cell system: human ovarian carcinoma lines grown from tumours: OCI-P5x (papillary serous) and OCI-C5x (clear cell). Reagent: siRNA pool against human genes, 1.25 pmol siRNA per well. Timing: 72 h or 96 h, depending on the cell culture. Treatment: rucaparib 20 µM (about IC30) or vehicle, present until read-out. Rucaparib or vehicle: Rucaparib. Cell line: OCI-C5x (clear cell). Measurement: 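ATP luminescence measured at 72 or 96 h according to the culture, then normalised and expressed as percent viability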. Scale: viability, normalised: higher = more viable cells remaining. Active means: 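a well counts as a hit if its normalised viability is under 80 percent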. Calls: active = viability under 80%; inactive = viability 80% or more.
Shown is a random part of the about 2,100 reagents, in one setting of the screen. 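Calls flag viability under 80% in either arm, not effects specific to rucaparib; the reference for percent is not stated.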 A number with no mark means an inactive call. Some reagents were tested in more than one well and are listed for each. Not stated in the record: the 100% reference.

{"gene symbol": "CYLD", "technical replicate": "1", "viability, normalised (%)": "52.9 (active)"}
{"gene symbol": "CYLD", "technical replicate": "2", "viability, normalised (%)": "44.1 (active)"}
{"gene symbol": "CYLD", "technical replicate": "3", "viability, normalised (%)": "39.4 (active)"}
{"gene symbol": "SMARCAL1", "technical replicate": "1", "viability, normalised (%)": "63.8 (active)"}
{"gene symbol": "SMARCAL1", "technical replicate": "1", "viability, normalised (%)": "43.6 (active)"}
{"gene symbol": "SMARCAL1", "technical replicate": "2", "viability, normalised (%)": "34.1 (active)"}
{"gene symbol": "SMARCAL1", "technical replicate": "2", "viability, normalised (%)": "70.1 (active)"}
{"gene symbol": "SMARCAL1", "technical replicate": "3", "viability, normalised (%)": "54.2 (active)"}
{"gene symbol": "SMARCAL1", "technical replicate": "3", "viability, normalised (%)": "43.3 (active)"}

Entries above whose gene name starts with C or c:
{"gene symbol": "CYLD", "technical replicate": "1", "viability, normalised (%)": "52.9 (active)"}
{"gene symbol": "CYLD", "technical replicate": "2", "viability, normalised (%)": "44.1 (active)"}
{"gene symbol": "CYLD", "technical replicate": "3", "viability, normalised (%)": "39.4 (active)"}

Next results follow:
{"gene symbol": "CHD6", "technical replicate": "1", "viability, normalised (%)": "73.5 (active)"}
{"gene symbol": "CHD6", "technical replicate": "2", "viability, normalised (%)": "58.8 (active)"}
{"gene symbol": "CHD6", "technical replicate": "3", "viability, normalised (%)": "55.5 (active)"}
{"gene symbol": "IL4", "technical replicate": "1", "viability, normalised (%)": "36.8 (active)"}
{"gene symbol": "IL4", "technical replicate": "2", "viability, normalised (%)": "44.6 (active)"}
{"gene symbol": "IL4", "technical replicate": "3", "viability, normalised (%)": "50.5 (active)"}
{"gene symbol": "ZFP82", "technical replicate": "1", "viability, normalised (%)": "69.6 (active)"}
{"gene symbol": "ZFP82", "technical replicate": "2", "viability, normalised (%)": "57 (active)"}
{"gene symbol": "ZFP82", "technical replicate": "3", "viability, normalised (%)": "55.9 (active)"}
{"gene symbol": "PLCB4", "technical replicate": "1", "viability, normalised (%)": "57.8 (active)"}
{"gene symbol": "PLCB4", "technical replicate": "2", "viability, normalised (%)": "46.1 (active)"}
{"gene symbol": "PLCB4", "technical replicate": "3", "viability, normalised (%)": "49.1 (active)"}
